Laboratory results taken from patent publication US20100069244A1, “Pyridine Compounds for Combating Pests” (priority 2006, published 2010).
Some results were stated once for a whole list of compounds, not compound by compound. For at least one compound, name, drawing or mass did not settle the structure.

Tests used:
Format in all cases: in vivo
[1] = tested on: Orchid Thrips (Dichromothrips corbetti); assay: Orchid thrips, floral-immersion technique; conditions: 300 ppm; adult thrips on dipped orchid flowers; after 4 days
[2] = tested on: Silverleaf Whitefly (Bemisia argentifolii); assay: Activity against silverleaf whitefly, cotton cotyledon dip; conditions: 300 ppm; whitefly adults on dipped cotton cotyledons; 3 days after treatment
[3] = tested on: Cotton Aphid (Aphis gossypii); assay: Activity against cotton aphid, cotyledon dip; conditions: 300 ppm; cotton cotyledons dipped; mortality counts after 5 days
[4] = tested on: Green Peach Aphid (Myzus persicae); assay: Green peach aphid, pepper leaf dip; conditions: 300 ppm; pepper leaves dipped; after 5 days
[5] = tested on: Cowpea Aphid (Aphis craccivora); assay: Activity against cowpea aphid, spray on potted cowpea plants; conditions: 300 ppm; sprayed cowpea plants; population reduction recorded after 24, 72 and 120 hours

| SMILES | mortality in comparison with untreated controls [1] | mortality in comparison with untreated controls [2] | mortality in comparison with untreated controls [3] | mortality in comparison with untreated controls [4] | mortality in comparison with untreated controls [5] |
| --- | --- | --- | --- | --- | --- |
| Cc1cccc(CN2CC[C@H]2COc2cncc(C#Cc3ccccc3)c2)c1 [Ia-227] | over 75% |  |  |  |  |
| Clc1ccc(OC[C@@H]2CCN2Cc2cccc(OCc3ccccc3)c2)cn1 [Ia-7] | over 75% | over 75% | over 90% | over 90% |  |
| COc1ccc(CN2CC[C@H]2COc2cncc(Cl)c2)cc1 [Ia-56] | over 75% |  | over 90% | over 90% | over 90% |
| CCC(CC)N1CC[C@H]1COc1cncc(Cl)c1 [Ia-219] | over 75% | over 75% | over 90% | over 90% | over 90% |
| C#CC(C)N1CCC1COc1cncc(Cl)c1 (mixture of isomers) [Ia-217] | over 75% | over 75% | over 90% | over 90% | over 90% |
| Cc1ccc(CN2CC[C@H]2COc2ccc(Cl)nc2)cc1 [Ia-96] | over 75% | over 75% |  | over 90% | over 90% |
| Clc1cncc(OC[C@@H]2CCN2CC2CC2)c1 [Ia-2] | over 75% |  | over 90% | over 90% | over 90% |
| Oc1ccccc1CN1CC[C@H]1COc1cnc(Cl)c(Cl)c1 [Ia-38] | over 75% | over 75% | over 90% | over 90% | over 90% |
| COc1ccc(CN2CC[C@H]2COc2cnc(Cl)c(Cl)c2)cc1 [Ia-63] | over 75% |  | over 90% | over 90% | over 90% |
| Clc1ccc(CN2CC[C@H]2COc2cncc(C#Cc3ccccc3)c2)c(Cl)c1 [Ia-226] | over 75% |  |  |  |  |
| Clc1ccc(OC[C@@H]2CCN2Cc2ccccc2OCc2ccccc2)cn1 [Ia-9] | over 75% |  |  |  |  |
| CCCCC(C)N1CCC1COc1cncc(Cl)c1 (mixture of isomers) [Ia-218] | over 75% |  | over 90% | over 90% | over 90% |
| Clc1cncc(OCC2CCN2Cc2cc(Br)cs2)c1 (centres unmarked) [Ia-213] | over 75% | over 75% | over 90% | over 90% | over 90% |
| C[S+]([O-])c1ccc(CN2CC[C@H]2COc2ccc(Cl)nc2)cc1 (some centres unmarked) [Ia-51] | over 75% |  |  |  |  |
| Clc1cccc(CN2CC[C@H]2COc2ccc(Cl)nc2)c1 [Ia-45] | over 75% | over 75% | over 90% |  | over 90% |
| Fc1ccccc1CN1CC[C@H]1COc1ccc(Cl)nc1 [Ia-48] | over 75% | over 75% | over 90% | over 90% | over 90% |
| Oc1ccccc1CN1CC[C@H]1COc1ccc(Cl)nc1 [Ia-20] | over 75% |  | over 90% | over 90% |  |
| C[S+]([O-])c1ccc(CN2CC[C@H]2COc2cncc(Cl)c2)cc1 (some centres unmarked) [Ia-55] | over 75% |  | over 90% | over 90% | over 90% |
| CC(CN1CC[C@H]1COc1ccc(Cl)nc1)c1ccccc1 (some centres unmarked) [Ia-175] | over 75% | over 75% | over 90% | over 90% | over 90% |
| Clc1cc(OC[C@@H]2CCN2Cc2ccc(OCc3ccccc3)cc2)cnc1Cl [Ia-34] | over 75% |  | over 90% | over 90% |  |
| COc1ccccc1CN1CC[C@H]1COc1cnc(Cl)c(Cl)c1 [Ia-81] |  | over 75% | over 90% | over 90% | over 90% |
| O=[N+]([O-])c1ccc(CN2CC[C@H]2COc2cnc(Cl)c(Cl)c2)cc1 [Ia-87] |  | over 75% | over 90% | over 90% | over 90% |
| Clc1ccc(CN2CC[C@H]2COc2ccc(Cl)nc2)c(Cl)c1 [Ia-64] |  | over 75% | over 90% | over 90% | over 90% |
| FC(F)(F)Oc1cccc(CN2CC[C@H]2COc2ccc(Cl)nc2)c1 [Ia-97] |  | over 75% | over 90% | over 90% | over 90% |
| Fc1cc(Br)ccc1CN1CC[C@H]1COc1ccc(Cl)nc1 [Ia-99] |  | over 75% | over 90% | over 90% | over 90% |
| FC(F)(F)c1cccc(CN2CC[C@H]2COc2ccc(Cl)nc2)c1 [Ia-68] |  | over 75% | over 90% | over 90% | over 90% |
| CCC(CN1CC[C@H]1COc1ccc(Cl)nc1)OCc1ccccc1 (some centres unmarked) [Ia-43] |  | over 75% | over 90% | over 90% | over 90% |
| Clc1ccc(Cl)c(CN2CC[C@H]2COc2ccc(Cl)nc2)c1 [Ia-19] |  | over 75% | over 90% | over 90% | over 90% |
